# These are yes or no findings as the source states them, for the method shown. Some results given as binding are weak or reduced against the parent protein; the word gives no strength.
# B1: Bunyamwera virus (BUNV) glycoprotein Gn (natural protein, UniProt P04505 17-302, looked up)
# chain: SPVITRCFHGGQLIAERKSQTSISEFCIKDDVSMLKSEIVYTKNDTGIFGHSKVFRHWTITDWKACNPVVTAGGSINVIEVDKNLNLVTRNYVCTGDCTITVDRKNAQIIFQTDKLNHFEVTGTTISTGWFKSKASVTLDRTCEHIKVSCGKKTLQFHACFKQHMSCVRFLHRSILPGSMAISICQNIELIIITILALCIFIIMIILTKTYICYVLIPVFMPIAFAYGWAYNRSCKKCTCCGLAYHPFTNCGSYCVCGSKFETSDRMRMHRESGLCQGFKSLRVAR
# modifications: N-linked glycan at N60
# notes: Glycoprotein Gn of Bunyamwera virus, cut from the M segment polyprotein (Gn-NSm-Gc); ectodomain 17-205; membrane-anchored in the virion envelope; Native Gn in the envelope of purified virions; also called BUNV Gn
# Target: T1, Bunyamwera virus (BUNV) glycoprotein Gc (Bunyamwera virus) (UniProt P04505)
# T1 sequence (chain, N-linked glycan at N624): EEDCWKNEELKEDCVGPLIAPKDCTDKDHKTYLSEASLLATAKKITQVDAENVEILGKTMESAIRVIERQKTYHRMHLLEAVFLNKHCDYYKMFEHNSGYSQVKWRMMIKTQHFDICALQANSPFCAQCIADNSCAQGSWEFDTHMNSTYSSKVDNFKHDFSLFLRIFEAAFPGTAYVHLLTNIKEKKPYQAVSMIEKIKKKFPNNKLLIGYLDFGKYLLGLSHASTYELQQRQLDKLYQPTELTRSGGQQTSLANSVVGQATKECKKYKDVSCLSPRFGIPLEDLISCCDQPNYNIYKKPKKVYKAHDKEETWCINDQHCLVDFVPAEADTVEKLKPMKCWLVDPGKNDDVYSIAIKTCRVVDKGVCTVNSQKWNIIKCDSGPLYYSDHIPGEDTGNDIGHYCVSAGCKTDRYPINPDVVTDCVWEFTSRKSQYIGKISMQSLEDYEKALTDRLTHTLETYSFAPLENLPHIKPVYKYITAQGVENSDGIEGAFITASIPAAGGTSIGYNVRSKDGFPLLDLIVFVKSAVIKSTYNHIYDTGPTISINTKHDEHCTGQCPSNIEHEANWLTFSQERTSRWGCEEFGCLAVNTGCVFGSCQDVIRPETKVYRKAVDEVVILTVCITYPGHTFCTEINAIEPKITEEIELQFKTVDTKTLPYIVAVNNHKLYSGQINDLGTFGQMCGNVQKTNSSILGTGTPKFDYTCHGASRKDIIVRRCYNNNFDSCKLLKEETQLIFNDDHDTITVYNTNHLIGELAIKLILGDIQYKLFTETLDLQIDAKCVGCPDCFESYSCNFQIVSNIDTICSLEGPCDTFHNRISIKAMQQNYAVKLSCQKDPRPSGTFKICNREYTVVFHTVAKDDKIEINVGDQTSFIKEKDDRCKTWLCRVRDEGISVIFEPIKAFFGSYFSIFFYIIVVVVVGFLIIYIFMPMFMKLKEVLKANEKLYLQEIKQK
# Experiment: cryo-EM structure; cryo-electron tomography and subtomogram averaging (PEET, C3 symmetry) of glycoprotein spikes on purified BUNV virions, pH 7.3/no K+, 2 hr at 37 °C; tripod average ~16 Å, floor average ~13 Å (GS-FSC); X-ray head/stalk structures and an AlphaFold Gn-Gc model fitted into the maps
binder,measurement,value
B1,binding,binds
